This is one part of the list.
Molecular target: OsWRKY34 (Oryza sativa, UniProt Q0JBA9 1-250)
Test: protein-binding microarray (RPBM); PBS, 2% BSA, 51.3 ng/ul salmon testes DNA, 50 uM zinc acetate, 200 nM TF, 25 C, 1 h; high values mean tight binding
Conditions: protein: recombinant; tags: N-terminal polyhistidine and DsRed monomer fusion (pET32a); label: CyDye5-dUTP incorporated in the synthesized complementary strand; 3' TTTTT single-stranded linker to array surface; dsDNA, one strand shown
Procedure, shortened: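 Polyhistidine-tagged DsRed fusions of transcription factors, joined at the N-terminus, were expressed in E. coli BL21-CodonPlus and isolated on Ni–NTA. They were incubated at 200 nM for 1 h at 25 °C on a custom Agilent array, double-stranded and BSA-blocked, in PBS with 2% BSA, salmon testes DNA and 50 µM zinc acetate. The binding signal is per-feature fluorescence intensity (arbitrary units) read on an Axon 4000B scanner after washing.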

Amino acid sequences for entries named in this document (tags omitted).
UniProt Q0JBA9, entry or part of it: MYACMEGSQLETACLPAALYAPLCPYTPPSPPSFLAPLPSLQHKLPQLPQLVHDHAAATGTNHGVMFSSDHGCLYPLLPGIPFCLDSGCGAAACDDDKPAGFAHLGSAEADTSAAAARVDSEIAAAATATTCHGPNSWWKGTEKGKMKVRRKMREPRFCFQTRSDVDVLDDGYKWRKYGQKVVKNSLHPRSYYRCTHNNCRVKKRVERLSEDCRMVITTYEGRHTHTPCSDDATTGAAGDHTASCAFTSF

Sequence | binding signal
CCTGCATGCGTGGCTGCGCTCACTGTCGTTATTTGCTTTACGGAGTCACCTAGTGCAG | 10100 fluorescence intensity (a.u.)
GGGAATAACTCGTCGATGTCAGCCGCATGCACGCCAAGAGCGGAGTCACCTAGTGCAG | 10400 fluorescence intensity (a.u.)
TTTACAGCGACTATATATCTCTCCCTCATCTCCATCTAGACGGAGTCACCTAGTGCAG | 8190 fluorescence intensity (a.u.)
TCATAATTATAATTGCCATCTCTACTTGGTATCAGGTACACGGAGTCACCTAGTGCAG | 8570 fluorescence intensity (a.u.)
GGCATGTGGTTGTTCGTGCTCCTTGCATGCCACACTTAATCGGAGTCACCTAGTGCAG | 8090 fluorescence intensity (a.u.)
ACTAAACTTCCGCCGGCGTGTGGGCACATCGCACCGGCGCCGGAGTCACCTAGTGCAG | 8360 fluorescence intensity (a.u.)
CATATGTATGAGGGTATCTTTGTTTTGGCTTTGGTCCCTTCGGAGTCACCTAGTGCAG | 10200 fluorescence intensity (a.u.)
TCATGCCTTATTTGTATATCCCCTCTCTCTCCCTTTGTCTCGGAGTCACCTAGTGCAG | 8560 fluorescence intensity (a.u.)
GGGCGGTGGCGGACTGGCGGACTGACGACGACGGCGCCGGCGGAGTCACCTAGTGCAG | 8320 fluorescence intensity (a.u.)
TCTTTGTACTAAGGAGCTTGGTTATATTACATTCTGTGTACGGAGTCACCTAGTGCAG | 8280 fluorescence intensity (a.u.)
AAGGTGAGGTTGATGTTCTTTGTGTTGGTTACATGATGAGCGGAGTCACCTAGTGCAG | 10500 fluorescence intensity (a.u.)
ACCTCGACCCTCTGCCCCTCAACTCGGTGGTGACCACGCGCGGAGTCACCTAGTGCAG | 8310 fluorescence intensity (a.u.)
CCCTCTCTCTCCCTTTGTCTCCTTCCCTTTCTTTATTCTGCGGAGTCACCTAGTGCAG | 8580 fluorescence intensity (a.u.)
GAGGATGCGGGTGGGGACGCGAAAGAGGGTGTACTTGGCGCGGAGTCACCTAGTGCAG | 10000 fluorescence intensity (a.u.)
TATTTTAGTGCAAGGGGCGGGCGGGCGCGGTAGAAGTCAACGGAGTCACCTAGTGCAG | 18200 fluorescence intensity (a.u.)
GGTTTGTTTTGCCACTTTTGTGCTTATCTCGTTTTCCAAGCGGAGTCACCTAGTGCAG | 10400 fluorescence intensity (a.u.)
CTGGCTACCAAATTCACATTTTCTGTGGTACATGTACAAGCGGAGTCACCTAGTGCAG | 8300 fluorescence intensity (a.u.)
TAACAACTTTATCAGTCCTCATTCGGTTTTTTCTCTTTTACGGAGTCACCTAGTGCAG | 9590 fluorescence intensity (a.u.)
CATCCGCACCCGTACATTATCCGCACCCGCTCCAAATCTGCGGAGTCACCTAGTGCAG | 12600 fluorescence intensity (a.u.)
AGCACACACATGGGGATCACATTATTACATAGACTTTGACCGGAGTCACCTAGTGCAG | 8250 fluorescence intensity (a.u.)
GTCGAGGTGGTTCTTTTTTAACTTAGGGGTGATGGATATGCGGAGTCACCTAGTGCAG | 10000 fluorescence intensity (a.u.)

Sequence | binding signal
AAATTTGTGAAAAGTTGCATAAACGTTGACTCCAGTTTGCCGGAGTCACCTAGTGCAG | 8770 fluorescence intensity (a.u.)
CATATTATGCTGTCATATCCTCGAGTATTCGTGTACCAATCGGAGTCACCTAGTGCAG | 9910 fluorescence intensity (a.u.)
TCTCGCTGCGGCGCCGGCCCCACGCGCATCCCGCATCGCTCGGAGTCACCTAGTGCAG | 8850 fluorescence intensity (a.u.)
TGCCTTATTTCTATGTGGGTAAGCTCATTTTGTTGTTACGCGGAGTCACCTAGTGCAG | 8930 fluorescence intensity (a.u.)
CATTCCACATCACATGCTTCACCACCATAGCCGGAAGCAACGGAGTCACCTAGTGCAG | 8260 fluorescence intensity (a.u.)
CCTTCAAAGTTCAAATTTGTTTTCCTTTTTTTGTCGGTGTCGGAGTCACCTAGTGCAG | 8990 fluorescence intensity (a.u.)
CCTCGTTCTTCTTCTTCTCTCTCTGGTTTTACATTTTTACCGGAGTCACCTAGTGCAG | 10300 fluorescence intensity (a.u.)
GCAAGCAGTTCAGTGGATCACATTACACGTCGCCCTGATTCGGAGTCACCTAGTGCAG | 8060 fluorescence intensity (a.u.)
TGACGGATCCTCCACCACCACCACCTCGATCGTCAAATCCCGGAGTCACCTAGTGCAG | 10400 fluorescence intensity (a.u.)
TATACCTGCATTTTTACTACTAGCTCCTGTTACTTATCACCGGAGTCACCTAGTGCAG | 9160 fluorescence intensity (a.u.)
GATTGCTAACTTGCTTCCTCCGTCCGCGGCCACCACTTTCCGGAGTCACCTAGTGCAG | 10700 fluorescence intensity (a.u.)
CGCCGACAGCCCGAACCCGCGGCGACGTTTCCCTCGACCCCGGAGTCACCTAGTGCAG | 8940 fluorescence intensity (a.u.)
CACCCAAGAAAAAAACTAATTGCTATTGTGGGTGGGGTCCCGGAGTCACCTAGTGCAG | 8030 fluorescence intensity (a.u.)
TACCAAAGTTCTTTTTTTATGGCCATTTGTACCATTGTTACGGAGTCACCTAGTGCAG | 9410 fluorescence intensity (a.u.)
CCTGCTCCGCCGCCGCCGCCGCCGCCGGCCTCCTCCGACCCGGAGTCACCTAGTGCAG | 8360 fluorescence intensity (a.u.)
GGCTTATGGAGTTTGATCTCGTTAAATTTTTATACTTTTCCGGAGTCACCTAGTGCAG | 8660 fluorescence intensity (a.u.)
CTTTAGTTTTCACTTTTTGATTTTCTGCACACGCTTCCCACGGAGTCACCTAGTGCAG | 8920 fluorescence intensity (a.u.)
GTTGTTGCTTCTTGTGATAGCCTTGGAGCTCTTCGTACTACGGAGTCACCTAGTGCAG | 8070 fluorescence intensity (a.u.)
TTTCTTTCTTTCTTTCTTTCGATTTCTTCTTCTTGCTTTACGGAGTCACCTAGTGCAG | 11200 fluorescence intensity (a.u.)
CGTACTTTTTCCTTATTCTTAAGCTACCACTCCCTCGTTTCGGAGTCACCTAGTGCAG | 12400 fluorescence intensity (a.u.)
AAACACACCCCTTCAATTCCTGCATTTTTTCTAATTTCTTCGGAGTCACCTAGTGCAG | 10200 fluorescence intensity (a.u.)

Reformatted tab-delimited: part of the list above.
Sequence	binding signal
AGCACACACATGGGGATCACATTATTACATAGACTTTGACCGGAGTCACCTAGTGCAG	8250 fluorescence intensity (a.u.)
GTCGAGGTGGTTCTTTTTTAACTTAGGGGTGATGGATATGCGGAGTCACCTAGTGCAG	10000 fluorescence intensity (a.u.)
AAATTTGTGAAAAGTTGCATAAACGTTGACTCCAGTTTGCCGGAGTCACCTAGTGCAG	8770 fluorescence intensity (a.u.)
CATATTATGCTGTCATATCCTCGAGTATTCGTGTACCAATCGGAGTCACCTAGTGCAG	9910 fluorescence intensity (a.u.)
TCTCGCTGCGGCGCCGGCCCCACGCGCATCCCGCATCGCTCGGAGTCACCTAGTGCAG	8850 fluorescence intensity (a.u.)
TGCCTTATTTCTATGTGGGTAAGCTCATTTTGTTGTTACGCGGAGTCACCTAGTGCAG	8930 fluorescence intensity (a.u.)
CATTCCACATCACATGCTTCACCACCATAGCCGGAAGCAACGGAGTCACCTAGTGCAG	8260 fluorescence intensity (a.u.)
CCTTCAAAGTTCAAATTTGTTTTCCTTTTTTTGTCGGTGTCGGAGTCACCTAGTGCAG	8990 fluorescence intensity (a.u.)
CCTCGTTCTTCTTCTTCTCTCTCTGGTTTTACATTTTTACCGGAGTCACCTAGTGCAG	10300 fluorescence intensity (a.u.)
GCAAGCAGTTCAGTGGATCACATTACACGTCGCCCTGATTCGGAGTCACCTAGTGCAG	8060 fluorescence intensity (a.u.)
TGACGGATCCTCCACCACCACCACCTCGATCGTCAAATCCCGGAGTCACCTAGTGCAG	10400 fluorescence intensity (a.u.)
TATACCTGCATTTTTACTACTAGCTCCTGTTACTTATCACCGGAGTCACCTAGTGCAG	9160 fluorescence intensity (a.u.)
GATTGCTAACTTGCTTCCTCCGTCCGCGGCCACCACTTTCCGGAGTCACCTAGTGCAG	10700 fluorescence intensity (a.u.)
CGCCGACAGCCCGAACCCGCGGCGACGTTTCCCTCGACCCCGGAGTCACCTAGTGCAG	8940 fluorescence intensity (a.u.)

Additional results

Sequence | binding signal
CATGCAATTTTTTAGGGAATTAGGGATGTGCCGTGTCCAACGGAGTCACCTAGTGCAG | 9080 fluorescence intensity (a.u.)
ACTTTCAACTTTTCCGTCAAATCGTTTCAATTTCAACCAACGGAGTCACCTAGTGCAG | 8190 fluorescence intensity (a.u.)
TTCGTGGACCTTTTAGAGTGTTAACCACTCGGATTCCTTTCGGAGTCACCTAGTGCAG | 10400 fluorescence intensity (a.u.)
AAAACCCTGTTCAGCCCCACCGTTTAGCCTTTACATTACCCGGAGTCACCTAGTGCAG | 8740 fluorescence intensity (a.u.)
CGTTTCTTGGCTGGTTTTCTTGGGCGGCGATCGATCGATGCGGAGTCACCTAGTGCAG | 8140 fluorescence intensity (a.u.)
GCACCTACGACTCCTCCATCATGTCATGTCATTTATTCATCGGAGTCACCTAGTGCAG | 8120 fluorescence intensity (a.u.)
CCGGCGGCCATCCACCACACGGCTCCGGCTGCGGCTGCGCCGGAGTCACCTAGTGCAG | 8470 fluorescence intensity (a.u.)
CAACCCCAACCCCAACCCCGGTCAATCCAAACCCAACTATCGGAGTCACCTAGTGCAG | 9460 fluorescence intensity (a.u.)
CTTCATATATACCCCTGGCACGCACTTACACACACATTCGCGGAGTCACCTAGTGCAG | 9730 fluorescence intensity (a.u.)
ATCGATCGGCCGCACCGTTGTGCTTTTGTCCCTGATATACCGGAGTCACCTAGTGCAG | 10300 fluorescence intensity (a.u.)
CAACCCGATCGACGTCCCACCGGTCGTCCCTGCTGGCAATCGGAGTCACCTAGTGCAG | 8720 fluorescence intensity (a.u.)
TGTGGCTCTCGGAAGAAGTTGCTGCAGTCCGTGTTGTTCCCGGAGTCACCTAGTGCAG | 8420 fluorescence intensity (a.u.)
ACAACCGACCAGCAACGCCACTCTCACCATTACCATATATCGGAGTCACCTAGTGCAG | 9880 fluorescence intensity (a.u.)
CACCTTTCTGTGCTCCCAAAACCATCCGCAACAACTCGTACGGAGTCACCTAGTGCAG | 8300 fluorescence intensity (a.u.)
TGTGTTACTGTTTCTGCCTGCTGCCCTCGATCCGACGCTACGGAGTCACCTAGTGCAG | 8420 fluorescence intensity (a.u.)
ATCTTTCAACCTGGCGCAATTGCCATTTTTCTCAAAGTTACGGAGTCACCTAGTGCAG | 10600 fluorescence intensity (a.u.)
TACTGCCTGTACATCCCGTGCTTCTCCGGCTCTCCGCTCTCGGAGTCACCTAGTGCAG | 10200 fluorescence intensity (a.u.)
AGTTGCGTCCCAATCTCATAAATTATTATCTCGTTTCTTTCGGAGTCACCTAGTGCAG | 8940 fluorescence intensity (a.u.)
GCACCGATGTCCCGGTCCCGCCGATATCACCGAGAAAAAACGGAGTCACCTAGTGCAG | 8270 fluorescence intensity (a.u.)
AGAATCAGCTTGGCACCGTACCAAATCCCCAATGAGTAGCCGGAGTCACCTAGTGCAG | 8940 fluorescence intensity (a.u.)
TGTTTTGTCATTAGTCTATGTTTAATACTTTAAATGTGTACGGAGTCACCTAGTGCAG | 8320 fluorescence intensity (a.u.)

Sequence | binding signal
GCGCGTCGCGTCGCACTTCACACCGTACCGTCTCATGCTACGGAGTCACCTAGTGCAG | 9780 fluorescence intensity (a.u.)
GGCCCAGAGTGCCACATTTTTTTGGGCCCATATCATCGCTCGGAGTCACCTAGTGCAG | 8660 fluorescence intensity (a.u.)
CCACCTAGTGATATGTGTGGTTGCTGGATTTCATACTCCCCGGAGTCACCTAGTGCAG | 8030 fluorescence intensity (a.u.)
CATACATGTTAATTTGTTTCTCATGTTGTTCTTTCAGGTCCGGAGTCACCTAGTGCAG | 12300 fluorescence intensity (a.u.)
CGAACCATATCCGGGTTTATTTTTCTTTTTTTCAATTTTTCGGAGTCACCTAGTGCAG | 8100 fluorescence intensity (a.u.)
TCTATTTTTTTTCTCCATGTTACCTTCTGCTAATATATTTCGGAGTCACCTAGTGCAG | 10600 fluorescence intensity (a.u.)
CTGGTTTCCGTGTCCAATTTTAACTGTCCGTCTTATATAACGGAGTCACCTAGTGCAG | 14300 fluorescence intensity (a.u.)
TCTCCTCACCGGCCCCTCTTCCCCTTCGATTCTGGCGGCTCGGAGTCACCTAGTGCAG | 8880 fluorescence intensity (a.u.)
CTCCTCCTCTTTCGCCGCGATTTCTTTAGGATTTTTTTTCCGGAGTCACCTAGTGCAG | 9240 fluorescence intensity (a.u.)
TTAGTTCTTCCTCATCAACATCGTCAGGGATGTTGTAGCTCGGAGTCACCTAGTGCAG | 8060 fluorescence intensity (a.u.)
CGTCATGGTATACTGTCAGTTGTGGTATCTTCATTCCGACCGGAGTCACCTAGTGCAG | 10200 fluorescence intensity (a.u.)
GGCTTATGGCGCAGGTCCGATCTAGAGCATCACTTCACACCGGAGTCACCTAGTGCAG | 8080 fluorescence intensity (a.u.)
TTCTATCATGTTCTTGTATTTTTCCTATCTCTACGATTTTCGGAGTCACCTAGTGCAG | 10500 fluorescence intensity (a.u.)
ACAACGTCCAAGGTATCGCCATTGCTCTCCGAAGTCCGAACGGAGTCACCTAGTGCAG | 8980 fluorescence intensity (a.u.)
GCTTTCTCTCAACTCCAAACTTTGACATTCTCGTTTTCCGCGGAGTCACCTAGTGCAG | 10700 fluorescence intensity (a.u.)
AAGTCTTATCCATCCATTTTTTTTCTCTCGTTTTCCTCTCCGGAGTCACCTAGTGCAG | 10200 fluorescence intensity (a.u.)
TTTTAAAAAAGTCAACAGCGTCAAACATTTTGGTATGGAGCGGAGTCACCTAGTGCAG | 8400 fluorescence intensity (a.u.)
CCTCTCTTTTCTTGATTTCCTCAACTGTCACTACTACCTACGGAGTCACCTAGTGCAG | 12100 fluorescence intensity (a.u.)
CCGCCGCCAACTGCACCCTCGCCGACGTCAACCACCTGGACGGAGTCACCTAGTGCAG | 10200 fluorescence intensity (a.u.)
AACTTCTAACATTTTCGTCACATCGTTCCAATTTCAATCACGGAGTCACCTAGTGCAG | 9310 fluorescence intensity (a.u.)
CGAATGCCGACAACTTGCCCATTAGATCACATCACTACCTCGGAGTCACCTAGTGCAG | 8100 fluorescence intensity (a.u.)
